Source: PubChem BioAssay AID1508588 (Peter MacCallum Cancer Centre, 2020)
Shown is a random part of about 18,000 deposited reagents. In the full data, 790 (4.4%) got an active call. 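Calls rest on a combination of fold-change classes in drug and vehicle arms, not all shown here.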 A number with no mark means an inactive call. A reagent listed more than once was tested more than once; the source does not tell the runs apart. No sequences are given here.

Screen: 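Knock-downs boosting vemurafenib effects on melanoma cell growth or lactate release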 (primary screen)
System: human WM266.4 melanoma cells (BRAF V600 mutant)
Knock-down reagent: siRNA pool against human genes, 40 nM
Time to read-out: 96 h from transfection to read-out
Treatment: vemurafenib 300 nM (about IC25), added 48 h after transfection, for 48 h; comparison arm got DMSO vehicle only
Measured: 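Cell gain (DAPI nuclei at end minus before drug, mean of two replicates) and medium lactate by absorbance per cell, both as ratio to non-targeting siRNA, also grouped into fold-change classes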
Reading the numbers: cell gain with vemurafenib: higher = more cell gain than with non-targeting siRNA; lactate per cell with vemurafenib: higher = more lactate made per cell
Hit rule: 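a knock-down counts as enhancing when its fold-change classes with vehicle and with vemurafenib, taken together, show a stronger drug effect on cell gain or lactate per cell; exact class pairs not stated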
Calls: active = enhances vemurafenib effect; inactive = no enhancement seen

no.	gene knocked down	cell gain with vemurafenib	lactate per cell with vemurafenib
1	TMEM216 (transmembrane protein 216)	0.02	1.29
2	AQP1 (aquaporin 1 (Colton blood group))	0.39	0.68
3	SPMIP2 (sperm microtubule inner protein 2)	0.58	0.32
4	LRRC10 (leucine rich repeat containing 10)	0.65	1.44
5	SLC60A1	0.53	1.16
6	SESN1 (sestrin 1)	0.66	0.93
7	ATP6AP1 (ATPase H+ transporting accessory protein 1)	0.58	1.08
8	MYO1D (myosin ID)	1.06	0.55
9	C3orf38 (chromosome 3 open reading frame 38)	0.18	2.16
10	WHAMM	0.67	0.97
11	LRRTM2 (leucine rich repeat transmembrane neuronal 2)	0.85 (active)	0.44
12	CCDC89 (coiled-coil domain containing 89)	0.63	1
13	RAB42 (RAB42, member RAS oncogene family)	1.19	0.43
14	C5AR1 (complement C5a receptor 1)	0.31	1.82
15	OR4D9 (olfactory receptor family 4 subfamily D member 9)	0.45	0.85
16	NUP43 (nucleoporin 43)	0.2	2.29
17	ZNF627 (zinc finger protein 627)	0.85	1.11
18	TAF7L (TATA-box binding protein associated factor 7 like)	0.43	1.79
19	FAM221A (family with sequence similarity 221 member A)	1.43	0.69
20	TSLIG2 (tRNA splicing ligase complex subunit 2)	0.55	0.98
21	PAAF1 (proteasomal ATPase associated factor 1)	-0.04	3.02
22	ENPP3 (ectonucleotide pyrophosphatase/phosphodiesterase 3)	0.35	0.2
23	ZFR2 (zinc finger RNA binding protein 2)	0.86	0.72
24	ZNF140 (zinc finger protein 140)	0.56	0.68
25	CXCL10 (C-X-C motif chemokine ligand 10)	0.72 (active)	0.49
26	LOC100288884 (retired record)	0.14	2.74
27	OR5D13 (olfactory receptor family 5 subfamily D member 13)	0.74	0.77
28	PAK5 (p21 (RAC1) activated kinase 5)	0.49 (active)	0.6
29	GPR15LG (G protein-coupled receptor 15 ligand)	0.36	1.38
30	ENOSF1 (enolase superfamily member 1)	0.83	1.12
31	URGCP (upregulator of cell proliferation)	1.1	0.68
32	IFNE (interferon epsilon)	-0.03	3.11
33	LNP1 (leukemia NUP98 fusion partner 1)	0.66	0.75
34	CYP3A43 (cytochrome P450 family 3 subfamily A member 43)	0.29	1.86
35	RBMY1F (RNA binding motif protein Y-linked family 1 member F)	0.43	0.84
36	POLL (DNA polymerase lambda)	0.85	1.32
37	SLC1A6	0.3	1.31

Reformatted: results already given
gene knocked down,cell gain with vemurafenib,lactate per cell with vemurafenib
CCDC89 (coiled-coil domain containing 89),0.63,1
"RAB42 (RAB42, member RAS oncogene family)",1.19,0.43
C5AR1 (complement C5a receptor 1),0.31,1.82
OR4D9 (olfactory receptor family 4 subfamily D member 9),0.45,0.85

Continued:
no.	gene knocked down	cell gain with vemurafenib	lactate per cell with vemurafenib
38	PPP4R3B (protein phosphatase 4 regulatory subunit 3B)	1.17	1
39	KIF5C (kinesin family member 5C)	0.8	0.8
40	ARHGEF7 (Rho guanine nucleotide exchange factor 7)	0.51	1.62
41	P3H3 (prolyl 3-hydroxylase 3)	0.35	1.18
42	SYNE2 (spectrin repeat containing nuclear envelope protein 2)	0.34	2.19
43	MPZL1 (myelin protein zero like 1)	0.81	0.91
44	DTX3L (deltex E3 ubiquitin ligase 3L)	0.91	0.61
45	RFWD3 (ring finger and WD repeat domain 3)	0.43	1.2
46	GET4 (guided entry of tail-anchored proteins factor 4)	0.63	0.59
47	GTF3C5 (general transcription factor IIIC subunit 5)	0.68	1.34
48	LPCAT1 (lysophosphatidylcholine acyltransferase 1)	0.23	0.92
49	SLC25A34	0.74	1.22
50	SPATA31H1 (SPATA31 subfamily H member 1)	0.18	1.37
51	HMGN5 (high mobility group nucleosome binding domain 5)	0.65	1.05
52	VPS29 (VPS29 retromer complex component)	0.63	0.82
53	RET (ret proto-oncogene)	0.8	0.76
54	POU3F3 (POU class 3 homeobox 3)	0.79	0.5
55	TEDC1 (tubulin epsilon and delta complex 1)	0.21	0.84
56	CRYBA2 (crystallin beta A2)	0.26	1.44
57	SARS1 (seryl-tRNA synthetase 1)	0.18	0.62
58	FEM1A (fem-1 homolog A)	0.89	0.82
59	TM4SF4 (transmembrane 4 L six family member 4)	0.61	0.86
60	PURA (purine rich element binding protein A)	0.93	0.88
61	OXLD1 (oxidoreductase like domain containing 1)	0.62	0.76
62	NDC80 (NDC80 kinetochore complex component)	-0.07	2.12
63	KRTAP27-1 (keratin associated protein 27-1)	0.4	1.52
64	MROH8 (maestro heat like repeat family member 8)	0.18 (active)	0.14
65	CYB561 (cytochrome b561)	0.85	0.64
66	GOLGA3 (golgin A3)	0.09	0.83
67	FAM76B (family with sequence similarity 76 member B)	0.85	1
68	MRPS33 (mitochondrial ribosomal protein S33)	1.35	1.25
69	EIF3C (eukaryotic translation initiation factor 3 subunit C)	0.06	0.97
70	PTGR2 (prostaglandin reductase 2)	0.78	1.23
71	HDAC9 (histone deacetylase 9)	0.42	1.33
72	ZNF16 (zinc finger protein 16)	0.4	2.12
73	AHCYL1 (adenosylhomocysteinase like 1)	0.51	0.09
74	RNF130 (ring finger protein 130)	1.04 (active)	0.72
75	RNF130 (ring finger protein 130)	0.45 (active)	0.6
76	PABPC5 (poly(A) binding protein cytoplasmic 5)	0.43	0.06
77	ASIC4 (acid sensing ion channel subunit family member 4)	0.45	0.86
78	BMP8A (bone morphogenetic protein 8a)	0.74	0.81
79	FGF18 (fibroblast growth factor 18)	0.58	0.8
80	RPS18 (ribosomal protein S18)	-0.17	3.25
81	RERGL (RERG like)	0.16	1.01
82	SLC18A1	0.61	1.19
83	SPACA5 (sperm acrosome associated 5)	0.73	0.68
84	SNED1 (sushi, nidogen and EGF like domains 1)	1.18	0.59
85	LHCGR (luteinizing hormone/choriogonadotropin receptor)	0.57	0.44
86	TESK1 (testis associated actin remodelling kinase 1)	0.63	1.11
87	KLK1 (kallikrein 1)	1.18	0.98
88	PLAAT3 (phospholipase A and acyltransferase 3)	0.07	1.1
89	TMEM175 (transmembrane protein 175)	0.46	0.74
90	REX1BD (required for excision 1-B domain containing)	0.96	0.76
91	CHRM4 (cholinergic receptor muscarinic 4)	1.03	0.7
92	LELP1 (late cornified envelope like proline rich 1)	1.06	0.38
93	TIMM17A (translocase of inner mitochondrial membrane 17A)	0.53	0.88
94	MSLN (mesothelin)	0.24	2.23
95	SPPL2B (signal peptide peptidase like 2B)	1.01	0.58
96	SLC25A6	0.98	0.76
97	TMEM169 (transmembrane protein 169)	0.91	1.01
98	CDK12 (cyclin dependent kinase 12)	0.38	1.14
99	CYB5A (cytochrome b5 type A)	0.83	1.67
100	FAM222A (family with sequence similarity 222 member A)	0.67	0.5
101	IFT56 (intraflagellar transport 56)	0.83	0.75
102	TMEM217 (transmembrane protein 217)	0.12 (active)	0.18
103	ACTBL2 (actin beta like 2)	0.04 (active)	-0.18
104	SLC24A3	0.43	0.57
105	ICAM3 (intercellular adhesion molecule 3)	0.47	0.73
106	TRRAP (transformation/transcription domain associated protein)	-0.1	0.78
107	ARFGAP3 (ARF GTPase activating protein 3)	0.52	1.1
